Test results published in article PMC8005928.
Results are given in words; binding and its absence hold for the method and conditions named. Binding seen in cells or lysates may run through a third protein. Some binding calls cover weakened binding; strength is not graded here.

By UniProt entry, the sequences of proteins in these tests, tags left out.
UniProt P26040: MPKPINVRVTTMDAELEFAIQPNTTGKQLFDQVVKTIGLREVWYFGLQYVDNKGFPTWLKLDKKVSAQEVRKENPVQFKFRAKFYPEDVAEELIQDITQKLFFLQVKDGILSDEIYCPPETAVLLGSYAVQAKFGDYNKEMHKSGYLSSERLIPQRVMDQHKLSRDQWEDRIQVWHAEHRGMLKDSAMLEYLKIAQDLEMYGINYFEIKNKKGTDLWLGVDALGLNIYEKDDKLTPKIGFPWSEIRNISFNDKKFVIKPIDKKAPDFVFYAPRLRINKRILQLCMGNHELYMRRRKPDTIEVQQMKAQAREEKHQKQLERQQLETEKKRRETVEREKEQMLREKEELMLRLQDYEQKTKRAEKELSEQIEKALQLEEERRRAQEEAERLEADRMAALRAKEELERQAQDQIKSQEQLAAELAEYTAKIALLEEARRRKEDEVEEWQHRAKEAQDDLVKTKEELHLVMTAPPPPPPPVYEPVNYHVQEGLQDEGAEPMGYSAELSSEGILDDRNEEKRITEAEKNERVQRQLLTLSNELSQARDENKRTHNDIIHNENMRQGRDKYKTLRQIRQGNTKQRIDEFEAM
UniProt P15311: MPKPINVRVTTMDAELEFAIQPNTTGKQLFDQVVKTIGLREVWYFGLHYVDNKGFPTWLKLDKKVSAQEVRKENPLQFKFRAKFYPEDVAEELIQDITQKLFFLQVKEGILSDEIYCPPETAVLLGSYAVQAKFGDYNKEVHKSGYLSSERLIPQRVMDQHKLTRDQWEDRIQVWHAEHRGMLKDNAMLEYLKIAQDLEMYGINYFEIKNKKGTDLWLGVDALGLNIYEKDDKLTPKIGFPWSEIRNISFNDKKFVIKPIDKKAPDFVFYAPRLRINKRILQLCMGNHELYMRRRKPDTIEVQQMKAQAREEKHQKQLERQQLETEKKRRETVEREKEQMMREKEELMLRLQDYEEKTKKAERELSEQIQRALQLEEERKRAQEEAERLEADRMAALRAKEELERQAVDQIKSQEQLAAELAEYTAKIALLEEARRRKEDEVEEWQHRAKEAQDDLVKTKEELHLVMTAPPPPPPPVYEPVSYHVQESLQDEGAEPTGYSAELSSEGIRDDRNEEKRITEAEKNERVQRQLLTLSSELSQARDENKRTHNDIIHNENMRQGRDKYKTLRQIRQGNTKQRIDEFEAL

Legend:
[1] = target: T1, ARID3A (murine follicular B cells) (mouse (endogenous in follicular B cells)) (UniProt Q62431); test: co-IP; whole-cell lysates of normal murine follicular B cells stimulated with α-IgM, α-CD19 or α-IgM+α-CD19; anti-ARID3A IP, blots with anti-EZRIN or anti-αβ-actin
T1 sequence: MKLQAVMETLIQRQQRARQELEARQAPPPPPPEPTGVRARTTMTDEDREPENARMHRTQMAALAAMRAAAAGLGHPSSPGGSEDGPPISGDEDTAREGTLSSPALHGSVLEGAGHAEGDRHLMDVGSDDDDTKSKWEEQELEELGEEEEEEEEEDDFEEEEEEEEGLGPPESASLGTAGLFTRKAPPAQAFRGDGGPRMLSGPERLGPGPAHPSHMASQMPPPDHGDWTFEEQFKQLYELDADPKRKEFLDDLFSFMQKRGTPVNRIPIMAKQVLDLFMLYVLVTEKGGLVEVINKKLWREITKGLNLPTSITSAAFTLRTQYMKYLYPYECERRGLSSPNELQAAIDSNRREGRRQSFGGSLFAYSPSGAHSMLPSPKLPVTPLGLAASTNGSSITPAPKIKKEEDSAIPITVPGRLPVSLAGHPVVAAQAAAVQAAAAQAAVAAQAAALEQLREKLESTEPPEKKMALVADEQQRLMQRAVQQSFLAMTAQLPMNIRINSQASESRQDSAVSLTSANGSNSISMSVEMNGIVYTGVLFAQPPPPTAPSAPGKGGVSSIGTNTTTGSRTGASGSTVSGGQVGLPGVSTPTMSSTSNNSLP

[2] = target: T2, ARID3A (human (endogenous in Raji, Ramos, CL-01, Daudi)) (UniProt Q99856); test: co-IP; lipid rafts of unstimulated B-cell lines; anti-ARID3A IP, anti-EZRIN Western blot
T2 sequence: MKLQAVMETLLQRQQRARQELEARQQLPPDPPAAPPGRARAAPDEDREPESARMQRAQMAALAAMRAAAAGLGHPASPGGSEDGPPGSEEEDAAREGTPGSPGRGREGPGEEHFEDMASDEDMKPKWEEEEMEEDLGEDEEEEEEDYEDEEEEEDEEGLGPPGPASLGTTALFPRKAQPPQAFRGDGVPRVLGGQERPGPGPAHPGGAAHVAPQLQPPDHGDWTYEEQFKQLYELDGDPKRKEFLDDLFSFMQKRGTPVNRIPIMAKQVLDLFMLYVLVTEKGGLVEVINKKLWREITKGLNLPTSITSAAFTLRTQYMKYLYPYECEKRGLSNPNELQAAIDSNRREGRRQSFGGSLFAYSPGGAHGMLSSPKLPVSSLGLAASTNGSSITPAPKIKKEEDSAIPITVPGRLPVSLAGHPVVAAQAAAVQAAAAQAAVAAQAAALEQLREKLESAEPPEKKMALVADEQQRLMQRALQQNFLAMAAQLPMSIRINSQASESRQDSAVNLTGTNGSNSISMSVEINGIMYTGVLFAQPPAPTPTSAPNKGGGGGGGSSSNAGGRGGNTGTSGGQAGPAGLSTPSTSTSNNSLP

[3] = target: T2, ARID3A (human (endogenous in Raji, Ramos, CL-01, Daudi)); test: co-IP; whole-cell lysates of Raji, Ramos, CL-01 and Daudi cells, stimulated or unstimulated; anti-ARID3A IP, anti-EZRIN Western blot
[4] = target: T2, ARID3A (human (endogenous in Raji, Ramos, CL-01, Daudi)); test: co-IP; lipid rafts (sucrose gradient, solubilised in RIPA with 500 mM NaCl) of Raji, Ramos, CL-01 and Daudi cells stimulated for 5 min with anti-IgM, anti-CD19 or both; anti-ARID3A IP, anti-EZRIN Western blot

Row | binding [1] | binding [4] | Substance | binding [2] | binding [3]
1 | binds |  | EZRIN (murine follicular B cells) (from UniProt P26040 1-586) |  | 
2 |  | binds | EZRIN (from UniProt P15311 1-586) | no binding (condition: unstimulated cells) | no binding (condition: in whole-cell lysates)
